The list does not hold the whole screen: it gathers tests that were run many times, whatever their T/C, doses with no T/C, and many T/C values between a quarter and a half above the control. Further doses and runs are listed elsewhere. T/C is the treated group as % of the vehicle group. Some entries give survivors of the animals treated and no T/C: the source holds a T/C of zero for them, seemingly a mark for toxic or unscored doses. Some doses without a T/C left all or most animals alive at the check, yet need not have been tolerated: survival well below the control is almost never listed, so the zero probably covers shortened survival too. Survivors were counted at the toxicity check, usually on the fifth day, unless a day is given; later deaths do not show. Schedule codes are those of the source, taken here to give the interval after Q, in days (D) or hours (H), and the number of doses after X. Some schedule codes hold Z or #, which are not explained here. Some entries were tested several times; their values stand side by side, smallest first. Where survival is the endpoint, the PubChem record calls one and a half times the control and up active, and a quarter to a half above the control has no call in these data; cut-offs in other NCI protocols can differ. Some T/C values carry the count of animals alive at the toxicity check (mostly the fifth day); without a count, all were alive then.
Tested on: L1210 leukemia ip in BDF1 mice, survival T/C
Experiment: NCI In Vivo Anticancer Drug Screen. Data for tumor model L1210 Leukemia (intraperitoneal) in B6D2F1 (BDF1) mice
Conditions: T/C endpoint: mean survival time, higher T/C = longer survival
[1] = dose: 400.0 mg/kg/injection, schedule: Q01DX001 (ip), vehicle: carboxymethylcellulose (CMC)
[2] = dose: 100.0 mg/kg/injection, schedule: Q01DX009 (ip), vehicle: saline with Tween-80
[3] = dose: 200.0 mg/kg/injection, schedule: Q01DX009 (ip), vehicle: saline with Tween-80
[4] = dose: 400.0 mg/kg/injection, schedule: Q01DX009 (ip), vehicle: saline with Tween-80
[5] = dose: 400.0 mg/kg/injection, schedule: Q04DX003 (ip), vehicle: saline
[6] = dose: 400.0 mg/kg/injection, schedule: Q01DX001 (ip), vehicle: saline
[7] = dose: 100.0 mg/kg/injection, schedule: Q01DX009 (ip), vehicle: saline
[8] = dose: 150.0 mg/kg/injection, schedule: Q04DX003 (ip), vehicle: saline

c1ccc2c(c1)CC(=[N+]1CCCCC1)Cc1ccccc1-2
survivor count (dose: 400.0 mg/kg/injection, schedule: Q01DX009 (ip), vehicle: saline): 6 of 6

CC(=O)C(C)[P+](c1ccccc1)(c1ccccc1)c1ccccc1 (stereo not given)
survivor count (dose: 50.0 mg/kg/injection, schedule: Q04DX003 (ip), vehicle: water): 3 of 6 | survivor count (dose: 100.0 mg/kg/injection, schedule: Q04DX003 (ip), vehicle: water): 2 of 6 | survivor count (dose: 200.0 mg/kg/injection, schedule: Q04DX003 (ip), vehicle: water): 0 of 6 | survivor count (dose: 400.0 mg/kg/injection, schedule: Q04DX003 (ip), vehicle: water): 0 of 6

COc1ccc(C2OCC(c3ccccc3)O2)cc1 (stereo not given)
survivor count (dose: 333.0 mg/kg/injection, schedule: Q01DX Z (ip), vehicle: methylcellulose (MC)): 6 of 6

C1=Cc2ccccc2Sc2ccccc21
survivor count (dose: 100.0 mg/kg/injection, schedule: Q01DX001 (ip), vehicle: carboxymethylcellulose (CMC)): 4 of 4 | survivor count [1]: 4 of 4

c1cnc2c(c1)ccc1ncccc12
survivor count [2]: 1 of 6 | survivor count [3]: 0 of 6 | survivor count [4]: 0 of 6

C=CCOC(OCC=C)C(OCC=C)OCC=C
survivor count [2]: 6 of 6

COc1cccc(/C(C)=C2\SC(=S)NC2=O)c1
survivor count [1]: 1 of 4

CNC(=S)N/N=C\C=N/NC(=S)NC
survivor count (dose: 1.0 micrograms/kg/injection, schedule: Q01DX009 (ip), vehicle: carboxymethylcellulose (CMC)): 0 of 6 | survivor count (dose: 5.0 micrograms/kg/injection, schedule: Q01DX009 (ip), vehicle: carboxymethylcellulose (CMC)): 0 of 6 | survivor count (dose: 10.0 micrograms/kg/injection, schedule: Q01DX009 (ip), vehicle: carboxymethylcellulose (CMC)): 0 of 6 | survivor count (dose: 50.0 micrograms/kg/injection, schedule: Q01DX009 (ip), vehicle: carboxymethylcellulose (CMC)): 0 of 6

C=CCNCC1OC(OC)C2OC(C)(C)OC12 (stereo not given)
survivor count [5]: 0 of 6

CCCCCN(CCCCC)CCCNc1c2c(nc3ccc(Cl)cc13)CCCC2
survivor count (dose: 100.0 mg/kg/injection, schedule: Q01DX001 (ip), vehicle: saline): 1 of 4 | survivor count (dose: 200.0 mg/kg/injection, schedule: Q01DX001 (ip), vehicle: saline): 0 of 4 | survivor count [6]: 0 of 4

CC1([N+](=O)[O-])COP(=O)(O)OC1 (stereo not given) (tested in a mixture with another compound)
survivor count [6]: 0 of 4

CCN(CC)CCCC(C)Nc1ccnc(/C=C/c2ccc(Cl)cc2)c1 (stereo not given)
survivor count (dose: 75.0 mg/kg/injection, schedule: Q01DX009 (ip), vehicle: Klucel (hydroxypropylcellulose) (HPC)): 3 of 6 | survivor count [7]: 1 of 6 | survivor count (dose: 150.0 mg/kg/injection, schedule: Q01DX009 (ip), vehicle: Klucel (hydroxypropylcellulose) (HPC)): 0 of 6 | survivor count [8]: 5 of 6 | survivor count (dose: 200.0 mg/kg/injection, schedule: Q04DX003 (ip), vehicle: Klucel (hydroxypropylcellulose) (HPC)): 1 of 6 | survivor count (dose: 300.0 mg/kg/injection, schedule: Q01DX009 (ip), vehicle: Klucel (hydroxypropylcellulose) (HPC)): 0 of 6 | survivor count (dose: 400.0 mg/kg/injection, schedule: Q04DX003 (ip), vehicle: Klucel (hydroxypropylcellulose) (HPC)): 0 of 6

CC1CCC(C(O)(C(=O)O)C2CCC(C)CC2)CC1 (stereo not given)
survivor count (dose: 300.0 mg/kg/injection, schedule: Q01DX001 (ip), vehicle: other): 0 of 6

CC(C)(O)CC(O)(C(F)(F)F)C(F)(F)F
survivor count (dose: 50.0 mg/kg/injection, schedule: Q01DX009 (ip), vehicle: other): 3 of 6 | survivor count (dose: 100.0 mg/kg/injection, schedule: Q01DX009 (ip), vehicle: other): 3 of 6 | survivor count [2]: 3 of 6 | survivor count [3]: 1 of 6 | survivor count [4]: 0 of 6

Nc1ccc(C(=O)Nc2ccc(N(CCCl)CCCl)cc2)cc1
T/C (dose: 25.0 mg/kg/injection, schedule: Q01DX009 (ip), vehicle: saline): 129 % of control | T/C (dose: 50.0 mg/kg/injection, schedule: Q01DX009 (ip), vehicle: saline): 127 [5 of 6 alive] and 137 % of control | survivor count [7]: 1 of 6 and 6 of 6 | T/C (dose: 100.0 mg/kg/injection, schedule: Q04DX003 (ip), vehicle: saline): 125 % of control | survivor count (dose: 150.0 mg/kg/injection, schedule: Q01DX009 (ip), vehicle: saline): 2 of 6 | T/C [8]: 131 % of control | survivor count (dose: 200.0 mg/kg/injection, schedule: Q01DX009 (ip), vehicle: saline): 0 of 6 | survivor count [5]: 1 of 6

FC(F)(F)c1cccc([PH+](c2cccc(C(F)(F)F)c2)c2cccc(C(F)(F)F)c2)c1.FC(F)(F)c1cccc([PH+](c2cccc(C(F)(F)F)c2)c2cccc(C(F)(F)F)c2)c1.[Cl][Hg][Cl]
survivor count (dose: 50.0 mg/kg/injection, schedule: Q01DX009 (ip), vehicle: Klucel (hydroxypropylcellulose) (HPC)): 2 of 6 | survivor count (dose: 100.0 mg/kg/injection, schedule: Q01DX009 (ip), vehicle: Klucel (hydroxypropylcellulose) (HPC)): 3 of 3 | survivor count (dose: 200.0 mg/kg/injection, schedule: Q01DX009 (ip), vehicle: Klucel (hydroxypropylcellulose) (HPC)): 0 of 3

c1ccc(CSc2ncnc3nc[nH]c23)nc1
T/C (dose: 200.0 mg/kg/injection, schedule: Q04DX003 (ip), vehicle: saline sonified): 140 % of control

CC1(C)CCCC2(C)C1CC(O)C1(CO1)C2CCC(C)(O)C1CO1 (stereo not given)
survivor count (dose: 100.0 mg/kg/injection, schedule: Q01DX009 (ip), vehicle: DMSO): 4 of 6 | survivor count (dose: 200.0 mg/kg/injection, schedule: Q04DX003 (ip), vehicle: DMSO): 5 of 6 | survivor count (dose: 400.0 mg/kg/injection, schedule: Q04DX003 (ip), vehicle: DMSO): 2 of 6

OCC1OC(n2cnc3c([Se])ncnc32)C(O)C1O (stereo not given)
survivor count (dose: 200.0 mg/kg/injection, schedule: Q01DX005 (ip), vehicle: saline): 1 of 6

Cc1nc(N)[nH]c(=O)c1Br
survivor count (dose: 400.0 mg/kg/injection, schedule: Q01DX009 (ip), vehicle: Klucel (hydroxypropylcellulose) (HPC)): 3 of 6

CC12CC3CC(C)(C1)CC(CN=C(N)CCl)(C3)C2
survivor count (dose: 25.0 mg/kg/injection, schedule: Q01DX009 (ip), vehicle: Klucel (hydroxypropylcellulose) (HPC)): 2 of 3 | survivor count (dose: 50.0 mg/kg/injection, schedule: Q04DX002 (ip), vehicle: Klucel (hydroxypropylcellulose) (HPC)): 1 of 3 | survivor count (dose: 100.0 mg/kg/injection, schedule: Q04DX002 (ip), vehicle: Klucel (hydroxypropylcellulose) (HPC)): 0 of 3 | survivor count (dose: 200.0 mg/kg/injection, schedule: Q04DX002 (ip), vehicle: Klucel (hydroxypropylcellulose) (HPC)): 0 of 3 | survivor count (dose: 400.0 mg/kg/injection, schedule: Q04DX002 (ip), vehicle: Klucel (hydroxypropylcellulose) (HPC)): 0 of 3

CN1CCCC1c1ccc(Br)cc1 (stereo not given)
survivor count (dose: 200.0 mg/kg/injection, schedule: Q01DX001 (ip), vehicle: acetone): 1 of 6 | survivor count (dose: 400.0 mg/kg/injection, schedule: Q01DX001 (ip), vehicle: acetone): 0 of 6

CC(=O)OC1CC2c3ccccc3C1c1cccc[n+]12 (stereo not given)
survivor count (dose: 100.0 mg/kg/injection, schedule: Q04DX003 (ip), vehicle: Klucel (hydroxypropylcellulose) (HPC)): 6 of 6 | survivor count (dose: 115.0 mg/kg/injection, schedule: Q01DX009 (ip), vehicle: Klucel (hydroxypropylcellulose) (HPC)): 3 of 6 | survivor count (dose: 170.0 mg/kg/injection, schedule: Q01DX009 (ip), vehicle: Klucel (hydroxypropylcellulose) (HPC)): 0 of 6 | survivor count (dose: 200.0 mg/kg/injection, schedule: Q01DX001 (ip), vehicle: Klucel (hydroxypropylcellulose) (HPC)): 1 of 6 | survivor count (dose: 400.0 mg/kg/injection, schedule: Q01DX001 (ip), vehicle: Klucel (hydroxypropylcellulose) (HPC)): 1 of 6

CC(C)C1N=C(N)N=C(N)N1c1ccc(Cl)c(Cl)c1 (stereo not given)
survivor count (dose: 300.0 mg/kg/injection, schedule: Q01DX001 (ip), vehicle: saline): 0 of 6

Reference: PubChem BioAssay AID248 (DTP/NCI, 2004)
